Source: paper PMC4463644
No constants are given. Whether binding was seen depends on the method and setting. In cells and extracts the contact can be indirect. Here binding means that the protein was enriched with, or labelled near, the bait; the list need not be complete.

Target: SNAMA (D. melanogaster (endogenous in 0-6 h embryos))
Assay: affinity purification with mass spectrometry; co-immunoprecipitation from 1 mg crude extract of 0-6 h embryos with 15 ug chicken anti-SNAMA DCM antibody, captured on chicken IgY precipitating resin; SDS-PAGE bands absent from the control with pre-adsorbed pre-immune serum identified by LC-MS/MS

B1: DNA replication-related element factor (DREF) (protein, UniProt Q94883 1-709)
chain: MSEGVPASPVAIGELKYEDVSQLNFSKLYSPKMKSVYWRYFGFPSNDNNEVITKQNVVCIKCHKVLTNHGNTTNLRAHLQHRHKDLFKELCQEHDIHVPPRKTPRNVSHPPLSKRNVSSRRVKLEFINNRNHDNASDDELDEAAVATAAMQAEEDASSQTMLYETMVPFTYDEAENLVEEEERLVMEPKYGRKRKVATPSSALMHGRVIKHEEGGYAAVANIANLAEALTDIVIKDLRNVDSLYDAGFGEFLRQVLGNSAAMPEPHKIDSLINEMHASKFLEIGEITRDFTSEKPFSLAFEMWVNVEQRRFLSIFHHFLDEETHSVRGMLYATVEYNDYIVFDDLLTDFYLANCTLAIINYDEEEDLLHTYLREKNIPISLCYVSVIDKCLRRVFEIEEVATLLEQVKDLMQRHSTEIASKVSEVPMPTYNEHFPWTLYETLKFFAESISWSEDMDHLVISAKTVTEALSALVIALDTLRGEDIPLCSMLSPITSKILIKKLGIAEQDDPLMMNLKRTISSVLQAHVISNDNLTAAALLDPRFHRLTTIDNLERTVRMLTHKYNINFGGVGEGESNEVAATSSVVAIKSEPRVVDGSAPKKLGLKLLFDSNEIPNPPKRDADSSVESDLKRYRNEVVVQLDESPIEWWLKMGHIYGTLRDLASLYHSVPGVVTLSFKKALRDQIYDFNKRFMLTGSHIDAILFLHHHNN
For B1, the binding was “binds”.

B2: Glycogen phosphorylase (protein, UniProt Q9XTL9 1-844)
chain: MSKPQSDADRRKQISVRGIAEVGNVTEVKKNFNRHLHYTLVKDRNVSTLRDYYFALANTVKDNMVGRWIRTQQHYYEKDPKRVYYLSLEYYMGRSLTNTMINLGIQSECEEAMYQLGLDIENLEEMEEDAGLGNGGLGRLAACFLDSMATLGLAAYGYGIRYEYGIFAQKIKNGEQVEEPDDWLRYGNPWEKARPEFMLPVNFYGRVIDTPEGKKWVDTQRVFAMPYDNPIPGYNNNHVNTLRLWSAKSPIDFNLKFFNDGDYIQAVLDRNLAENISRVLYPNDNFFEGKELRLKQEYFMCAATLQDIIRRYKASKFGSREAVRNTFDHFPDKVAIQLNDTHPSLAIPELMRILVDEEHLTWEKAWDITVRSCAYTNHTVLPEALERWPVSLLESILPRHLQIIYHINFLHMENVKKKFPDDLDRMRRMSMVEEDGEKRINMAHLSIVGSHAVNGVAAIHSQILKDSLFHDFYEMEPQKFQNKTNGITPRRWLLLCNPGLSDLIAEKIGDEWPVHLDQLVALKKWAKDPNFQRNVARVKQENKLKLAAILEKDYGVKINPSSMFDIQVKRIHEYKRQLLNCLHIITLYNRIKKDPTANFTPRTIMIGGKAAPGYYVAKQIIKLICAVGNVVNNDPIVGDKLKVIFLENYRVTLAEKIMPAADLSEQISTAGTEASGTGNMKFQLNGALTIGTLDGANVEMAEEMGLDNIFIFGMTVDEVEALKKKGYNAYDYYNANPEVKQVIDQIQGGFFSPGNPNEFKNIADILLKYDHYYLLADYDAYIKAQDLVSKTYQNQAKWLEMSINNIASSGKFSSDRTIAEYAREIWGVEPTWEKLPAPEDQPQN
With B2 the binding was “binds”.
